Values joined by “and” are separate entries in the source; they are usually repeats but may differ in a detail not shown here. Identical values can stand only once. The list shows a part of the results. Further columns of the screen follow, without active or inactive calls. Most of these compounds were active or inconclusive in the main read-out, so they are no random draw. Words in brackets tell the shape of the fitted curve; partial curves, single points and poor fits give uncertain potencies.

A short description of this assay: Cell signaling CRE-BLA (Fsk stim). To be noted: CHO CRE-bla reporter (cAMP response element driving beta-lactamase), forskolin EC10, beta-lactamase ratio; measured here: 460 nm blue channel. In a few lines: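 Titrated compounds plus EC10 NKH 477 on CHO CRE-bla cells, 3 h, 37 °C. CCF4, 2 h RT. Ratio 460/530 nm → AC50.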
What is called AC50 is the concentration giving half of the maximal activity seen. As for `COC(=O)c1cc(OC)c(OC)cc1-n1cnc2cc(OC)c(OC)cc2c1=O`, the AC50 was 15.8 µM [rising, single point].
In the case of `COc1ccccc1NC(=O)c1sc2nc(-c3ccco3)ccc2c1N`, the concentration at half-maximal activity (AC50) is 12.6 µM [falling, partial curve].
The same measure for `CCCCn1c(SCC(=O)Nc2cccc(OC)c2)nc2ccc(N3CCOCC3)cc2c1=O`: 10 µM [rising, single point]; for `C/C=C/COC(=O)c1[nH]c2c(c1C)C(=O)CC(c1ccco1)C2` (stereo unspecified): 1.26 µM [rising, full curve].
The same measure for `COc1ccc(-n2c(NC(=O)c3ccco3)c(C#N)c3nc4ccccc4nc32)cc1`: 7.94 µM [rising, partial curve].
The same measure for `CN(CC(=O)Nc1ccc(F)c(F)c1)S(=O)(=O)c1cccc2nsnc12`: 2.51 µM [falling, single point]; for `COc1ccc(-n2ncc3c(NCc4cccs4)ncnc32)cc1`: 7.94 µM [rising, partial curve]; for `CC1(C)CC(=O)CC(=Nc2ccc3[nH]c(=O)[nH]c3c2)C1`: 3.98 µM [rising, single point].
Consider `O=C(CSc1nc(-c2ccco2)cc(C(F)(F)F)n1)Nc1ccc(C(=O)N2CCCCC2)cc1`, for which the half-maximal activity concentration (AC50) is 12.6 µM [rising, partial curve].
As to `Cc1ccc(-c2ccc(=O)n(CC(=O)Nc3cccc(C(=O)N4CCN(C)CC4)c3)n2)cc1`, the AC50 is 25.1 µM [rising, single point].
The same measure for `CN(Cc1ccco1)c1nc(-c2cccnc2)nc2ccccc12`: 5.01 µM [rising, full curve].
As to `CCCc1nc2ccccc2c(C(=O)OCc2nnc(-c3cc(OC)c(OC)c(OC)c3)o2)c1CC`, the AC50 was 1 µM [rising, single point].
The same measure for `COc1ccc2c(c1)CCc1c(C(=O)Nc3ccn(Cc4ccc(C)cc4)n3)noc1-2`: 10 µM [falling, single point]; for `CCOC(=O)c1sc(Nc2nc3c(OC)cccc3s2)nc1C`: 10 µM [rising, partial curve].
The same measure for `COc1ccccc1-c1c(C)nn2c(C)c(C(C)=O)cnc12`: 10 µM [rising, partial curve]; for `Cc1ccc(NC(=O)NCC(c2cccnc2)N2CCOCC2)cc1` (stereo unspecified): 3.98 µM [falling, partial curve]; for `CCn1c2ccccc2c2nn(C)c(=N)nc21`: 10 µM [falling, partial curve].
In the case of `CCCC(=O)c1ccc(N2CCN(C(=O)c3ccccc3Br)CC2)c(F)c1`, the AC50 is 12.6 µM [falling, single point].
Take `Cc1ccc2cc(CN(CC3CCCO3)S(=O)(=O)c3c(C)ccc4nsnc34)c(=O)[nH]c2c1` (stereo unspecified): the AC50 was 25.1 µM [falling, single point].
On to `COc1ccc(CCNC2CC(=O)N(CCc3ccccc3)C2=O)cc1OC` (stereo unspecified), for which the AC50 was 0.316 µM [rising, partial curve, poor fit].
The same measure for `C=C[C@@]1(C)CC(=O)[C@@]2(O)[C@@]3(C)[C@H](O)CCC(C)(C)[C@@H]3[C@H](O)[C@H](OC(C)=O)[C@]2(C)O1`: 0.251 µM [rising, full curve].
The same measure for `CCNc1ncc2nc(C)c(=O)n(CCC#N)c2n1`: 10 µM [rising, partial curve].
As to `CCCN(CCC)S(=O)(=O)c1ccc(C(=O)Nc2nnc(-c3cc(OC)cc(OC)c3)o2)cc1`, the AC50 is 1.58 µM [falling, partial curve].
In the case of `COC(=O)c1c(-c2cccc(C)c2)csc1N`, the AC50 is 3.98 µM [rising, single point].
With `COc1ccc(-c2cn3cc(Cl)ccc3n2)cc1OC`, the AC50 is 12.6 µM [rising, partial curve].
The same measure for `Cc1nc(NCc2ccccc2)c2nc(-c3ccccc3)n(CCCN3CCOCC3)c2n1`: 10 µM [rising, partial curve]; for `CCCn1c(=O)c2ccccc2n2c(SCC(=O)c3cc(C)n(CCOC)c3C)nnc12`: 0.126 µM [falling, full curve]; for `CCOC(=O)c1sc(=S)n(-c2cc(F)ccc2F)c1N`: 3.16 µM [rising, full curve].
The same measure for `N=c1c(S(=O)(=O)c2ccccc2)cc2c(=O)n3ccccc3nc2n1CC1CCCO1` (stereo unspecified): 15.8 µM [rising, partial curve]; for `C=CCn1c(Cc2ccc(OC)cc2)nnc1SCc1nc2ccccc2c(=O)[nH]1`: 25.1 µM [rising, single point]; for `O=S(=O)(NCc1ccc2c(c1)OCO2)c1cccc2nsnc12`: 2.51 µM [falling, single point].
The same measure for `Cc1ccc(CCNC(=O)c2nnn(-c3cccc(C)c3)c2N)cc1`: 25.1 µM [falling, single point].
On to `COc1ccc2[nH]cc(CCNc3cc(-c4c(C)noc4C)ncn3)c2c1`, for which the AC50 is 12.6 µM [rising, partial curve].
Take `CCn1c(CNC(=O)Cc2ccc(OC)cc2)nnc1SCC(=O)Nc1nccs1`: the half-maximal activity concentration (AC50) was 10 µM [falling, single point].
The same measure for `CN1c2ccccc2C(C)(C)C12C=Cc1cc(O)ccc1O2` (stereo unspecified): 25.1 µM [falling, single point]; for `CC[N+](CC)(CC)CC(=O)Nc1c(C)cccc1C`: 31.6 µM [falling, single point].
For the molecule `CSc1nnc(Cn2c(=O)sc3ccccc32)n1CCc1ccccc1`, the AC50 is 10 µM [rising, single point].
The same measure for `COCCn1c(C)cc(C(=O)CSc2ncn[nH]2)c1C`: 12.6 µM [falling, partial curve]; for `COc1ccc(OC)c2[nH]c(=O)c(CCNC(=O)COc3ccccc3)cc12`: 12.6 µM [rising, single point].
`COc1cc(-c2ccc(=O)[nH]n2)ccc1OC(F)F`: the AC50 was 3.98 µM [rising, partial curve] and 2 µM [rising, full curve].
Turning to `COCc1nnc(NS(=O)(=O)c2ccc(C)cc2)s1`, the AC50 is 3.98 µM [falling, full curve].
The same measure for `Cc1cc(=O)oc2cc(OCc3nnc(-c4ccccc4Br)o3)ccc12`: 12.6 µM [rising, single point].
Take `CCCCN1c2ccccc2N(CCCO)c2cc(C)nnc21`: the half-maximal activity concentration (AC50) is 2 µM [rising, full curve].
As to `COC(=O)[C@@]1(Cc2ccc(OC)cc2)[C@H]2c3cc(C(=O)N(C)C)n(CCc4ccc(OC)c(Br)c4)c3C[C@H]2CN1C(=O)c1ccccc1`, the AC50 was 5.01 µM [rising, partial curve].
The same measure for `CCC(C(=O)OC)n1cnc2c(cnn2-c2ccc(Cl)cc2)c1=O` (stereo unspecified): 0.0501 µM [rising, full curve]; for `COc1cccc(-c2nc(NC3CCNCC3)c3ccccc3n2)c1`: 5.01 µM [rising, partial curve]; for `Nc1nc(-c2cccnc2)nc(N2CCCCC2)n1`: 25.1 µM [rising, single point].
The same measure for `Cc1cc(S(=O)(=O)N2CCN(Cc3ccc4c(c3)OCO4)CC2)cc(C)c1N1CCCC1=O`: 31.6 µM [falling, single point].
As for `CNC(=O)[C@H]1O[C@H](n2cnc3c(NCc4cccc(I)c4)nc(Cl)nc32)[C@@H](O)[C@@H]1O`, the AC50 was 7.94 µM [rising, partial curve].
For the molecule `O=C1C(C=Nc2ccccc2O)=C(O)c2ccccc21`, the AC50 was 0.316 µM [falling, full curve].
For `Cc1sc2nc(CN(Cc3cccs3)C(=O)C3CC3)[nH]c(=O)c2c1C`, the AC50 was 10 µM [rising, single point].
The same measure for `Cc1ccc(C(=O)N2CCN(C(=O)c3ccc(C)c(C)c3)C(C)C2)cc1C` (stereo unspecified): 1.26 µM [falling, partial curve]; for `CCOC(=O)c1cc(NC(=O)NCc2ccco2)c(C)nc1C`: 3.16 µM [falling, partial curve]; for `CCOC(=O)Cn1ncc2c(=O)oc3ccccc3c21`: 2.51 µM [falling, single point].
Regarding `CN1C(=O)C2(NCCc3c2[nH]c2ccccc32)c2ccccc21` (stereo unspecified), the AC50 was 5.01 µM [falling, partial curve, poor fit].
The same measure for `COc1cc2[nH]c(=O)n3nc(-c4ccccc4)nc3c2cc1OC`: 0.00316 µM [falling, full curve, poor fit]; for `Cn1c(=O)n(C)c2cc(S(=O)(=O)NCc3ccccc3)ccc21`: 0.00316 µM [falling, full curve, poor fit].
On to `CC(C)c1ccc(Cn2ccc3c4c(N)nc(NC5CC5)nc4ccc32)cc1`, for which the AC50 is 12.6 µM [rising, partial curve].
For the molecule `Cc1ccc(Cn2ccc(NC(=O)c3cc(-c4ccc(Br)cc4)on3)n2)cc1`, the AC50 was 0.0158 µM [rising, full curve].
The same measure for `O=C(Nc1ccccc1N1CCCCC1)c1cccs1`: 10 µM [rising, single point]; for `O=c1c(-c2cccc(Cl)c2)nc2cncnc2n1Cc1ccc(F)cc1`: 12.6 µM [rising, partial curve].
Consider `CCOc1cc(C2C(C#N)=C(N)Oc3n[nH]c(-c4ccccc4)c32)ccc1O` (stereo unspecified), for which the AC50 was 3.16 µM [rising, partial curve].
Turning to `COCc1cc(C)nc(Nc2ccc(C)c(C)c2)c1C#N`, the AC50 was 25.1 µM [rising, single point].
For `COc1ncc2nc(-c3ccccc3)c(=O)n(CCC#N)c2n1`, the AC50 is 10 µM [rising, partial curve].
The same measure for `C=CCn1c(=O)c2ccccc2n2c(SCC(=O)Nc3cc(C)on3)nnc12`: 12.6 µM [rising, single point]; for `Cc1cccc(C2c3c(n(C)c(=O)n(C)c3=O)N=C3c4ccccc4C(=O)C32)c1` (stereo unspecified): 5.01 µM [rising, partial curve].

For the origin of these results see PubChem BioAssay AID662 (National Center for Advancing Translational Sciences (NCATS), 2007).
